The record followed here is paper PMC5821942, “Crystal structure of IspF from Bacillus subtilis and absence of protein complex assembly amongst IspD/IspE/IspF enzymes in the MEP pathway” (Bioscience Reports, 2018).

These are yes or no findings as the source states them, for the method shown. For part of these data: Tags and fused reporters may be left off the sequences shown.

Experiment [1] has as its target T1, GST fusion of CDPME kinase (IspE) from Bacillus subtilis (Bacillus subtilis 168) (UniProt P37550).
T1 sequence: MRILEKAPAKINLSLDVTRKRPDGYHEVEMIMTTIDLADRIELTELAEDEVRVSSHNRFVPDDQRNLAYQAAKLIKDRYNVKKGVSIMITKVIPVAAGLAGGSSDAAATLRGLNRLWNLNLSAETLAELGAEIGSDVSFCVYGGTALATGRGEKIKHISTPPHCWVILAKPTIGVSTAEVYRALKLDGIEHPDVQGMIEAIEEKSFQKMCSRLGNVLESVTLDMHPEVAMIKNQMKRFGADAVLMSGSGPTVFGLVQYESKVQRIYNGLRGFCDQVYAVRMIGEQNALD
Briefly: SEC; Superdex75 10/300 GL; single B. subtilis proteins and triple mixture (0.2 mg each, 250 μl); 100 mM NaCl, 25 mM Tris/HCl pH 8.0; 1 mM MgCl2, 1 mM MEP, 1 mM CTP if IspD present; 30°C 30 min; both purified.

In experiment [2] the target is T2, CDPME kinase (IspE) from Escherichia coli (Escherichia coli K12) (UniProt P62615).
T2 sequence: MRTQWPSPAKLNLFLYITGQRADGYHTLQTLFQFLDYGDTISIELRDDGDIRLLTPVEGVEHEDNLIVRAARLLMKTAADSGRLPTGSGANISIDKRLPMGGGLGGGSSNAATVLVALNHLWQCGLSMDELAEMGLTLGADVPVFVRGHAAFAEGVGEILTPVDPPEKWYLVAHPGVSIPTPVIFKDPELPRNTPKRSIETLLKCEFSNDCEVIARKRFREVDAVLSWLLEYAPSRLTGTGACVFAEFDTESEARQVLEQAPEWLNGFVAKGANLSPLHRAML
Briefly: SEC; Superdex200 10/300 GL; single E. coli proteins and triple mixture (0.2 mg each, 250 μl); 100 mM NaCl, 25 mM Tris/HCl pH 8.0; 1 mM MgCl2, 1 mM MEP, 1 mM CTP if IspD present; 30°C 30 min; both purified. A general note: Size exclusion chromatography separates by hydrodynamic size, large species first.

The target in experiment [3] is T3, 2-C-Methyl-D-erythritol 2,4-cyclodiphosphate synthase (IspF) from Escherichia coli (Escherichia coli K12) (UniProt P62617).
T3 sequence: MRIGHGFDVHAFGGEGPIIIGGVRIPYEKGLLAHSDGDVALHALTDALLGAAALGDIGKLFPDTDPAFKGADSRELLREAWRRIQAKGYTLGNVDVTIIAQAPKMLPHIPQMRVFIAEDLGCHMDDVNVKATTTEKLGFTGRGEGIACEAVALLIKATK
The experiment is described as above.

Experiment [4] has as its target T3, 2-C-Methyl-D-erythritol 2,4-cyclodiphosphate synthase (IspF) from Escherichia coli (Escherichia coli K12). Briefly: native gel or EMSA; native gel shift of mixtures of two or three proteins, 2.5 μg/μl each, 10% glycerol, 25 mM Tris/HCl pH 8.0, 100 mM NaCl, 12 μl; 1 mM MgCl2, 1 mM MEP, 1 mM CTP if IspD present; 30°C 30 min; 8% native PAGE, 1x TBE, 4°C; both purified. (A gel shift assay detects complexes by their altered migration in electrophoresis.)

Experiment [5] addresses T2, CDPME kinase (IspE) from Escherichia coli (Escherichia coli K12). The description is as above.

B1: GST fusion of CDPME kinase (IspE) from Bacillus subtilis (enzyme, UniProt P37550 1-289)
chain: T1 sequence
As for B1, in experiment [1], the binding entry is on record as “no binding”.

B2: CDPME kinase (IspE) from Escherichia coli (enzyme, UniProt P62615 1-283)
chain: T2 sequence
For B2, the binding result in experiment [2] was “no binding”; in experiment [3], “no binding (tested: 0.2 mg each in 250 μl)”; in experiment [4] it was “no binding (tested: 2.5 μg/μl each)”.

B3: 2-C-Methyl-D-erythritol-4-phosphate cytidyltransferase (IspD) from Escherichia coli (enzyme, UniProt Q46893 1-236)
chain: MATTHLDVCAVVPAAGFGRRMQTECPKQYLSIGNQTILEHSVHALLAHPRVKRVVIAISPGDSRFAQLPLANHPQITVVDGGDERADSVLAGLKAAGDAQWVLVHDAARPCLHQDDLARLLALSETSRTGGILAAPVRDTMKRAEPGKNAIAHTVDRNGLWHALTPQFFPRELLHDCLTRALNEGATITDEASALEYCGFHPQLVEGRADNIKVTRPEDLALAEFYLTRTIHQENT
B3: the binding entry is listed as “no binding (tested: 0.2 mg each in 250 μl)” in experiment [2] and “no binding (tested: 2.5 μg/μl each)” in experiment [5].
